Test results taken from patent publication US7906486B2, “Method of treating or preventing tissue deterioration, injury or damage due to disease of mucosa” (SciClone Pharmaceuticals, Inc., priority 2007, dated 2011).
The source gives many values for each of these; only a part stands here.

Test system: oral mucositis induced by fractionated radiation (eight doses of 7.5 Gy, left buccal cheek pouch)
Assay: Oral mucositis induced by fractionated radiation in hamsters, mucositis scoring (Example 3, SCI-03)
Assay type: in vivo, Syrian Golden Hamsters
Set-up: key: 0: Pouch completely healthy. No erythema or vasodilation.; 1: Light to severe erythema and vasodilation. No erosion of mucosa.; 2: Severe erythema and vasodilation. Erosion of superficial aspects of mucosa leaving denuded areas, but no frank ulceration. Decreased stippling of mucosa.; 3: Formation of off-white ulcers in one or more places. Ulcers may have a yellow/gray due to pseudomembrane. Cumulative size of ulcers should equal about ¼ of the pouch. Severe erythema and vasodilation.; 4: Cumulative seize of ulcers should equal about ½ of the pouch. Loss of pliability. Severe erythema and vasodilation.; 5: Virtually all of pouch is ulcerated. Loss of pliability (pouch can only partially be extracted from mouth)
Excerpt: The fractionated radiation model in hamsters, developed by the Principal Investigator, has proven to be an accurate, efficient and cost-effective technique to provide a preliminary evaluation of anti-mucositis compounds. In this model, hamsters receive 8 doses of 7.5 Gy to the left cheek pouch on days 0, 1, 2, 3, […], rather than the single dose of 40 Gy on day 0 that is used in acute radiation studies. The rationale for using this scheduling for the radiation is that it more closely resembles the clinical courses of radiotherapy given to cancer patients. The course of mucositis in this model is well defined and results in peak mucositis scores approximately 14-16 days following radiation. Mortality (generally from the side effects of anesthesia) in the fractionated radiation model is slightly higher than that seen in the acute radiation model and group sizes are increased (to 10 per group) to allow for this.
(§1) Forty (40) male Syrian Golden Hamsters were given eight doses of radiation of 7.5 Gy each directed to their left buccal cheek pouch on days 0, 1, 2, 3, 6, 7, 8 and 9. This was accomplished by anesthetizing the animals and everting the left buccal pouch, while protecting the rest of the animal's bodies with a lead shield. Test materials were given by sub-cutaneous injection once daily as detailed in Table 9. Mucositis was evaluated clinically starting on day 7, and continuing on alternate days until day 35. Test articles were given as outlined Table 9, Groups 1 and 2 were dosed from Day −1 to Day 29, Group 3 was dosed on the days of radiation only, Group 4 was dosed on the days between Day −15 and Day 29 on which no radiation is given (Day −1, Day 4, Day 5 and Day 10 to Day 29).
The effect on mucositis of each drug treatment compared to placebo was assessed according to the following parameters:
On each evaluation day, the number of animals with a blinded mucositis score of ≧3 in each drug treatment group was compared to the control group. Differences were compared on a cumulative basis and statistical significance was determined by chi-square analysis. Efficacy, in this analysis, is defined by a significant reduction in the number of days that a group of animals had ulcerations (scores ≧3) when compared to the control group.
For each evaluation day the scores of the control group were compared to those of the treated groups using non-parametric rank sum analysis. Treatment success was considered as a statistically significant lowering of scores in the treated group on 2 or more days from day 6 to day 28.
as §1, with “daily at 8:00 am” for “daily”, “9. […]” for “9. Mucositis was evaluated clinically starting on day 7, and continuing on alternate days until day 35.”, “2 was” for “2 were”, “radiation only (days 0-3 and days 6-10),” for “radiation only,”, “Day −1” for “Day −15”, “Day 4 to” for “Day 4,”
Radiation was generated with a Philips 160 kVp (kilovolt potential) (18.75-ma) X-ray source at a focal distance of 30 cm, with a 3.0 mm hardened Al filtration system. Irradiation was targeted to the left buccal pouch mucosa at a rate of 3.32 Gy/minute. […] Using this calibration, the energy received by each animal at each radiation dose was approximately 64.5 nC (nanoCoulombs) at each time point. Prior to irradiation, animals were anesthetized with an intraperitoneal injection of ketamine (160 mg/kg) and xylazine (8 mg/kg). The left buccal pouch was everted, fixed and isolated using a lead shield.
The mucositis score, weight change and survival were measured throughout the study as described above. […]

Measured: Mucositis score

N[C@H](CCC(=O)N[C@@H](Cc1c[nH]c2ccccc12)C(=O)O)C(=O)O [SCV-07, γ-D-glutamyl-L-tryptophan]
2: Group 2, day 11, individual animals (two score lines each) | Group 2, day 15, individual animals (two score lines each) | Group 2, day 19, individual animals (two score lines each) | Group 2, day 21, individual animals (two score lines each) | Group 3, day 9, individual animals (two score lines each) | Group 3, day 13, individual animals (two score lines each) | Group 3, day 15, individual animals (two score lines each) | Group 3, day 19, individual animals (two score lines each) | Group 3, day 21, individual animals (two score lines each) | Group 3, day 23, individual animals (two score lines each) | Group 3, day 25, individual animals (two score lines each) | Group 3, day 27, individual animals (two score lines each) | Group 3, day 31, individual animals (two score lines each) | Group 4, day 11, individual animals (two score lines each) | Group 4, day 13, individual animals (two score lines each) | Group 4, day 15, individual animals (two score lines each) | Group 4, day 17, individual animals (two score lines each) | Group 4, day 19, individual animals (two score lines each) | Group 4, day 21, individual animals (two score lines each) | Group 4, day 23, individual animals (two score lines each) | Group 4, day 25, individual animals (two score lines each) | Group 4, day 27, individual animals (two score lines each) | Group 4, day 29, individual animals (two score lines each) | Group 4, day 31, individual animals (two score lines each) | Group 4, day 33, individual animals (two score lines each)
